Results published in the supplement of paper PMC10849652.
This is one part of the list.

By UniProt entry, the sequences of proteins in these tests, tags left out. Where a name states a change or a piece, a line headed by the entry shows the natural chain unless it says otherwise.
UniProt Q5SY16: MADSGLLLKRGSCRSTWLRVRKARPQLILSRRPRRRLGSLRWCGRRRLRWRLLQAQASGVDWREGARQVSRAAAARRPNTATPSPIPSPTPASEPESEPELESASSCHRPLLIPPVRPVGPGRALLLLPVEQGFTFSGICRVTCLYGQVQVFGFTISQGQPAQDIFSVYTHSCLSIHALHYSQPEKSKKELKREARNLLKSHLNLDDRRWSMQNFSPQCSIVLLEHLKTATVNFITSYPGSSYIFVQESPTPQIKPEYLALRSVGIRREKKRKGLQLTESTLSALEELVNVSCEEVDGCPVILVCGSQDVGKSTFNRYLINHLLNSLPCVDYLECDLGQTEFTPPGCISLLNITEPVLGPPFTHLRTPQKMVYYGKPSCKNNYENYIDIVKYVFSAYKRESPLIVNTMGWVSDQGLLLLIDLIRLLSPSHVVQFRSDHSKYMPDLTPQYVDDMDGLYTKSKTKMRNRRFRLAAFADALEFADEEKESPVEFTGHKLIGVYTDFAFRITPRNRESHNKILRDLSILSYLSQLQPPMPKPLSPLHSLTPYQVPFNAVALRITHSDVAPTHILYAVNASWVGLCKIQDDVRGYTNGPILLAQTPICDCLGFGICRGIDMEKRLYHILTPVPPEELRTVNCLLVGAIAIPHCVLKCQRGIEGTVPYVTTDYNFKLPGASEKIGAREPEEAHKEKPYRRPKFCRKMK
UniProt Q9BSD7: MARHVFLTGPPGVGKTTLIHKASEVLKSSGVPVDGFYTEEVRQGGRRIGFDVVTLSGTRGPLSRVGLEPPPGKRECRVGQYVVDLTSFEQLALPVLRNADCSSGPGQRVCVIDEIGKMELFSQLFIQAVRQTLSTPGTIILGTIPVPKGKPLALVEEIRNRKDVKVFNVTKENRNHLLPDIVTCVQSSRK
UniProt Q96RS6: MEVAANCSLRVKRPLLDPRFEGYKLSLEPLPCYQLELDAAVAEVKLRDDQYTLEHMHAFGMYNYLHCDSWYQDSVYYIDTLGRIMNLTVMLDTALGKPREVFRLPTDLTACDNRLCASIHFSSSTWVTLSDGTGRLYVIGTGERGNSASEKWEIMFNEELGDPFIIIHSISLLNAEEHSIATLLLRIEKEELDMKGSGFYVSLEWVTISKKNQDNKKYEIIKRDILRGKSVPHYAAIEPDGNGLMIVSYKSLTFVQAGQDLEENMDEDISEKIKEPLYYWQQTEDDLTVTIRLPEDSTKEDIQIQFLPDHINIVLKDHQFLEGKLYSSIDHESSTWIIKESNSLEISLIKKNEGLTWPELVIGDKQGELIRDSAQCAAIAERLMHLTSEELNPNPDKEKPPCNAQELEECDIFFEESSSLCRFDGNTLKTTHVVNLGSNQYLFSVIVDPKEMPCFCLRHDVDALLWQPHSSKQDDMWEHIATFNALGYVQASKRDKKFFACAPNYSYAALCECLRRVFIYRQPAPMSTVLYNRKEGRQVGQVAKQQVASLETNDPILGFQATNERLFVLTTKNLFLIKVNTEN
UniProt Q8TAT6: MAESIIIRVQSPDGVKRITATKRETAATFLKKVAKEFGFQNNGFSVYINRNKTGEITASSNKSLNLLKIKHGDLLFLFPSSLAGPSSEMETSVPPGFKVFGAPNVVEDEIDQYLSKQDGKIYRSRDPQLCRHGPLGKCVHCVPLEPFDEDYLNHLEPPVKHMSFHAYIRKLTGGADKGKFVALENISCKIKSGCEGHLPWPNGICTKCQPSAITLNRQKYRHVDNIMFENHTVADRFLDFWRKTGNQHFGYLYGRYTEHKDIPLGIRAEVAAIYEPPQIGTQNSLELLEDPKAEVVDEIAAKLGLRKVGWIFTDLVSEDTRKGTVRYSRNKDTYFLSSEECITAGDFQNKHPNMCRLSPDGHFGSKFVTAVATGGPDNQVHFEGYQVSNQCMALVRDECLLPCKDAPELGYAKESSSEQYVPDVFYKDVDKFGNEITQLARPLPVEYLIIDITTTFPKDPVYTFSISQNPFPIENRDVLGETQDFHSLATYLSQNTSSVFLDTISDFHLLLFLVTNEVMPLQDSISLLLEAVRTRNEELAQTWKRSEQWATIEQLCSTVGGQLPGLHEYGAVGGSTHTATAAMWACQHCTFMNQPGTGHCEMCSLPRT
UniProt O95989: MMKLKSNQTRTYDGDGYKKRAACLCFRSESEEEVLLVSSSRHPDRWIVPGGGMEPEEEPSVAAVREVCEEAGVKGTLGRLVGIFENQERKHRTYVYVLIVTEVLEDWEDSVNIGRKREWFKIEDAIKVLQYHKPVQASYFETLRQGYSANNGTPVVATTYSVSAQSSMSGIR
UniProt Q92636: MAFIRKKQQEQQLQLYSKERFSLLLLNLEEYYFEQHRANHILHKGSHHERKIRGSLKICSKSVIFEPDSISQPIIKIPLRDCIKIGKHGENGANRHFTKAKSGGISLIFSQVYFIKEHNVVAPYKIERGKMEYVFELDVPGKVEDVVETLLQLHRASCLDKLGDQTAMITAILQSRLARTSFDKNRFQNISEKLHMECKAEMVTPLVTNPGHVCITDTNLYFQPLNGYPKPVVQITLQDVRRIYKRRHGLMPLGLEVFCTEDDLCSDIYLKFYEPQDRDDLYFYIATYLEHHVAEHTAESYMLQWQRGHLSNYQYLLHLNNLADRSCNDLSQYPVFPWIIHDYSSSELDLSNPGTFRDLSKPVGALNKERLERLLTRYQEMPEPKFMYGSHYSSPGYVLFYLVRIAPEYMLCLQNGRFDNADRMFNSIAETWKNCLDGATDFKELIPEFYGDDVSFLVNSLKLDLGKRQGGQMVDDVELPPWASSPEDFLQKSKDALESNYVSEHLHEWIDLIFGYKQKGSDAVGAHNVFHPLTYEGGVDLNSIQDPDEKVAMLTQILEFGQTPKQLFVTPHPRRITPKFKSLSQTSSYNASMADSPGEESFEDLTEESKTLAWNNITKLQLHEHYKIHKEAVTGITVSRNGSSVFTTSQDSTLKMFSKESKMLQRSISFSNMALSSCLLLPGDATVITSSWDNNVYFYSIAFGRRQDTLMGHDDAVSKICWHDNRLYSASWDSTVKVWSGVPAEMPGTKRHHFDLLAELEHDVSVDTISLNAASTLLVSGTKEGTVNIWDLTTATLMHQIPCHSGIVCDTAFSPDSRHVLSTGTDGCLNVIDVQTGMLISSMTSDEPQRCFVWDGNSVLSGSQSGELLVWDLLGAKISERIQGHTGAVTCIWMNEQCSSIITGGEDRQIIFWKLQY
UniProt Q13232: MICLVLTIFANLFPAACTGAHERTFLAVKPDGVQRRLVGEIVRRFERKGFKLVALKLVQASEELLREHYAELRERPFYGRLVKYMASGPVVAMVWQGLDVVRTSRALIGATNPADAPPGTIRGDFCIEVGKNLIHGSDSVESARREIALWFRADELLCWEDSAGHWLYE
UniProt Q96MF7: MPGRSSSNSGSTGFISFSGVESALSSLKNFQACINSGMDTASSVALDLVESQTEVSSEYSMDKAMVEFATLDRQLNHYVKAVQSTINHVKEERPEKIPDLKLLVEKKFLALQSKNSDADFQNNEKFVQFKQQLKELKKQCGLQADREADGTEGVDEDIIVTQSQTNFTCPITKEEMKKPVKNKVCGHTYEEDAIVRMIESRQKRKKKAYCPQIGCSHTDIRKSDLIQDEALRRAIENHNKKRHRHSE
UniProt Q9NZJ9: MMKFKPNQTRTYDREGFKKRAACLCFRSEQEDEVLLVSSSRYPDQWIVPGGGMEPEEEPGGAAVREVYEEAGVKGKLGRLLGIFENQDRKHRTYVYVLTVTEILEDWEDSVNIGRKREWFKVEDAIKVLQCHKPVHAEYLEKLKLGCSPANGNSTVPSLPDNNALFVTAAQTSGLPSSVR
UniProt Q02818: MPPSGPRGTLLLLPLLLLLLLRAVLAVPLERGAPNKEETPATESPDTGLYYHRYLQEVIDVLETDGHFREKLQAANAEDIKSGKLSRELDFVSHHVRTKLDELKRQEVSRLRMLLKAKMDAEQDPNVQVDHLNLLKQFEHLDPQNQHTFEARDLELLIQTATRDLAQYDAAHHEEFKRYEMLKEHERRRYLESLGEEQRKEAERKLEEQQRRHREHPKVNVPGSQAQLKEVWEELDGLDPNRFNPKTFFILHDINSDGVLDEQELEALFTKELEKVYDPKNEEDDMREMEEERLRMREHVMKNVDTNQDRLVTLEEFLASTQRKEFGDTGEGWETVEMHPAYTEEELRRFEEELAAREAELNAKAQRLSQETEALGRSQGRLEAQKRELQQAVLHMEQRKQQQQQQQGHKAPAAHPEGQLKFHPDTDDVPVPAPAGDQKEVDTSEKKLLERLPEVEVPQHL
UniProt O15118: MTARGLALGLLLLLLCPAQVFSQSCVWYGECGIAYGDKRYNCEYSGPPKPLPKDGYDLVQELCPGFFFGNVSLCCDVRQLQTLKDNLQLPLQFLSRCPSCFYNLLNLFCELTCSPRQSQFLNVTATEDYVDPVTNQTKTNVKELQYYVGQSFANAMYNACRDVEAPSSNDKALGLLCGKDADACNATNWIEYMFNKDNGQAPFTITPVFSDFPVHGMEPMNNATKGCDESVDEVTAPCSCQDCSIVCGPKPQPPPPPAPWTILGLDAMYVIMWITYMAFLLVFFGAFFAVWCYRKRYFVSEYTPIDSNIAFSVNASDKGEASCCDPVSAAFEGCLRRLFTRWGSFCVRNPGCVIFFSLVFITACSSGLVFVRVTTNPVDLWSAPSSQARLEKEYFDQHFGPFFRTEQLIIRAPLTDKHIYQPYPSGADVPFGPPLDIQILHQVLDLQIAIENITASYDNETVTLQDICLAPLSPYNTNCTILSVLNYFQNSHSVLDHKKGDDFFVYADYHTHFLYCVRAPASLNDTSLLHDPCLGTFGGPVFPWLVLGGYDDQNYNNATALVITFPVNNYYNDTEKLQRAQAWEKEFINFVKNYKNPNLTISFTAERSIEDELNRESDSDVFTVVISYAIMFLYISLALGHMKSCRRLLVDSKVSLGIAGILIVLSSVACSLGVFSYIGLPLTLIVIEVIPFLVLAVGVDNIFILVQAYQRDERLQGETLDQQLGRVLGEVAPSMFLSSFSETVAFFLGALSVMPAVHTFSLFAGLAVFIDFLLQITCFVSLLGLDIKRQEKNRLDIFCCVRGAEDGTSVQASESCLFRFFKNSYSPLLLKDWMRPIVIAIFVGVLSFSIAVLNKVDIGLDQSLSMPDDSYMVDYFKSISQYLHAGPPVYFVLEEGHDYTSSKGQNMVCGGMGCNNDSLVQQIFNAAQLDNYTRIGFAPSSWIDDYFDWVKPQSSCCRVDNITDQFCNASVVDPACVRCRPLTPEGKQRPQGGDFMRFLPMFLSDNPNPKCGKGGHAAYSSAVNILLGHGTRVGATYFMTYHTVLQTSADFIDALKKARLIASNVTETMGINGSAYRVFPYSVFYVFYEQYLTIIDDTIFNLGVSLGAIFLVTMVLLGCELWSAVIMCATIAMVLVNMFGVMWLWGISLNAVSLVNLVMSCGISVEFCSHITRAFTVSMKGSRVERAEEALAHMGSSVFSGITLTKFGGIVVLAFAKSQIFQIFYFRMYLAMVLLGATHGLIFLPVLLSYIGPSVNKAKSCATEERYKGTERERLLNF
UniProt P53384: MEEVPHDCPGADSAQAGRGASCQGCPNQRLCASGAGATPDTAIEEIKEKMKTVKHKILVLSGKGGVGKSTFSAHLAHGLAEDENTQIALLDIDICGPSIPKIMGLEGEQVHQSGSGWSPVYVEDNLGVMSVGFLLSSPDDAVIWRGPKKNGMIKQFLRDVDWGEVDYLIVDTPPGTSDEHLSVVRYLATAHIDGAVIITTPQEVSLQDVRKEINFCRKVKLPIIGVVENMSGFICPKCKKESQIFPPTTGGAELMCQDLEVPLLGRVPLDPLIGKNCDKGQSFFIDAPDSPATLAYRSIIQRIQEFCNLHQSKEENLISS
UniProt Q9UMY1: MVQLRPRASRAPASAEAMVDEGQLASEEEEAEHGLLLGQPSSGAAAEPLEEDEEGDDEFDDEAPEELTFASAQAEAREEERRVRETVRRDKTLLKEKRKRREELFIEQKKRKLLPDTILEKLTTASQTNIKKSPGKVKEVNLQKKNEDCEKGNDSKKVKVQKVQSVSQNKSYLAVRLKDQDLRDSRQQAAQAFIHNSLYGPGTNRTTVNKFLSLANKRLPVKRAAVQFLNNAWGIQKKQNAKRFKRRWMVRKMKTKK
UniProt Q96IY1: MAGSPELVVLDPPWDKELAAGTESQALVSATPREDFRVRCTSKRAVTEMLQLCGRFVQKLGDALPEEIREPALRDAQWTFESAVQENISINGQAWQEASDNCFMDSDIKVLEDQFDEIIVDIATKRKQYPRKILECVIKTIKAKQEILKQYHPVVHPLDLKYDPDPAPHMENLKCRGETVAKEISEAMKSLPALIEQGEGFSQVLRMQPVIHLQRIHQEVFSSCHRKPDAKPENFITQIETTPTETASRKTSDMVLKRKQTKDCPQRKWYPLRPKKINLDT

Experiments:
Assay in all cases: log2 fold change, soluble protein after heating vs DMSO (PISA); higher = thermal stabilisation; K562 lysate, 10 uM; active = over 0.2 and 3.5 SD of the protein, either way, in both replicates (recomputed)
erlotinib = compound: C#Cc1cccc(Nc2ncnc3cc(OCCOC)c(OCCOC)cc23)c1 [erlotinib]
Method in brief: (§1)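 The values are log-two fold changes in thermal stability compared with solvent controls and come from duplicates. They were obtained by TMTpro 16plex LC-MS/MS, with channel sums equalised, on the supernatant after 21,000xg for 90 min. That supernatant came from crude K562 extract at 1 mg/mL protein treated with 10 μM compound for 30 min, heated for 3 min across 48°C-58°C, pooled and brought to 0.5% NP-40 at 4°C.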

[1] = compound: C/C(=N\NC(=O)C1=CC(=CC=C1)S(=O)(=O)N2CCOCC2)/C3=C(C=CC(=C3)Cl)O
Method in brief: as §1

[2] = compound: C1=CC(=CC=C1C2=NC3=C(N2)C=C(C=C3)C(=O)N)OC4=CC=C(C=C4)Cl
Method in brief: as §1

[3] = compound: C1=CC2=C(C=CC(=C2)/C=C\3/C(=O)NC(=NCC4=CC=CS4)S3)N=C1
Method in brief: as §1

[4] = compound: C1=CC2=NC=CN=C2C=C1/C=C/3\C(=O)NC(=O)S3
Method in brief: as §1

[5] = compound: C1=CC=C(C=C1)C2=NC(=C(N2)C3=CC=NC=C3)C4=CC(=C(C=C4)Cl)O
Method in brief: as §1

[6] = compound: C1=CC=C2C(=C1)C3=NNC4=CC=CC(=C43)C2=O
Method in brief: as §1

[7] = compound: C1CCN(C1)C(=O)NC2=CC=CC(=C2)NC3=NC=C(C(=N3)NCCC4=CN=CN4)Br
Method in brief: as §1

[8] = compound: C1CN(CCC1(CC2=CC=C(C=C2)Cl)N)C3=NC=NC4=C3C=CN4
Method in brief: as §1

IRAK-1-4 Inhibitor I = compound: C1COCCN1CCN2C3=CC=CC=C3N=C2NC(=O)C4=CC(=CC=C4)[N+](=O)[O-] [IRAK-1-4 Inhibitor I]
Method in brief: as §1

ibrutinib = compound: C=CC(=O)N1CCC[C@@H](n2nc(-c3ccc(Oc4ccccc4)cc3)c3c(N)ncnc32)C1 [ibrutinib]
Method in brief: as §1

[9] = compound: CC(=O)c1cnc2ccc(-c3cc(Cl)c(O)c(Cl)c3)nc2c1N[C@H]1CC[C@H](CN(C)C)CC1
Method in brief: as §1

ralimetinib = compound: CC(C)(C)Cn1c(N)nc2ccc(-c3[nH]c(C(C)(C)C)nc3-c3ccc(F)cc3)nc21 [ralimetinib]
Method in brief: as §1

[10] = compound: CC(C)(O)CC(=O)NCCn1ccc2ncnc(Nc3ccc(Oc4cccc(C(F)(F)F)c4)c(Cl)c3)c21
Method in brief: as §1

[11] = compound: CC(C)C1=C2N=C(C=C(N2N=C1)NCC3=CC=CC=C3)NCCCCCCN
Method in brief: as §1

[12] = compound: CC1=C(C(CC(=O)N1)C2=CC=C(C=C2)C(F)(F)F)C(=O)NC3=C(C=C4C(=C3)C=NN4)F
Method in brief: as §1

[13] = compound: CC1=C(C2=C(C=C1)C(=O)C3=CC=CC=C3N2CCCN)C
Method in brief: as §1

[14] = compound: CC1=C(C=C(C=C1)NC(=O)C2=CC(=CC=C2)C(C)(C)C#N)NC3=CC4=C(C=C3)N=CN(C4=O)C
Method in brief: as §1

[15] = compound: CC1=C(C=C(C=C1)NC(=O)C2=CC(=CC=C2)N(C)C)NC(=O)C3=CC=C(C=C3)O
Method in brief: as §1

[16] = compound: CC1=CC=C(C=C1)SC2=C3C=C(SC3=CN=C2)C(=O)N
Method in brief: as §1

Measured: log2 fold change

NOL9 (UniProt Q5SY16)
inactive: erlotinib 0.066 | [1] 0.022 | [2] -0.028 | [3] 0.014 | [4] 0.016 | [5] -0.034 | [6] -0.01 | [7] -0.002 | [8] 0.01 | IRAK-1-4 Inhibitor I 0.01 | ibrutinib -0.027 | [9] -0.043 | ralimetinib 0.002 | [10] 0.004 | [11] 0.036 | [12] 0.023 | [13] -0.026 | [14] -0.008 | [15] 0.041 | [16] -0.023

NTPCR (UniProt Q9BSD7)
inactive: erlotinib 0.015 | [1] -0.263 | [2] -0.007 | [3] 0.065 | [4] 0.031 | [5] 0.018 | [6] -0.045 | [7] 0.025 | [8] 0.046 | IRAK-1-4 Inhibitor I -0.011 | ibrutinib -0.004 | [9] 0.002 | ralimetinib 0.014 | [10] 0 | [11] 0.022 | [12] 0.018 | [13] 0.014 | [14] -0.002 | [15] 0.066 | [16] -0.001

NUDCD1 (UniProt Q96RS6)
inactive: erlotinib 0.023 | [1] -0.028 | [2] 0.004 | [3] -0.002 | [4] 0.017 | [5] 0.017 | [6] -0.021 | [7] -0.006 | [8] 0.025 | IRAK-1-4 Inhibitor I 0.004 | ibrutinib -0.03 | [9] 0.015 | ralimetinib 0.027 | [10] 0 | [11] -0.028 | [12] 0.008 | [13] -0.003 | [14] 0.025 | [15] -0.019 | [16] -0.007

NPLOC4 isoform 2 (UniProt Q8TAT6)
inactive: erlotinib -0.022 | [1] 0.032 | [2] -0.004 | [3] 0.001 | [4] -0.012 | [5] 0.011 | [6] -0.016 | [7] -0.012 | [8] 0.007 | IRAK-1-4 Inhibitor I 0.001 | ibrutinib -0.016 | [9] -0.015 | ralimetinib -0.01 | [10] -0.003 | [11] 0.027 | [12] -0.005 | [13] -0.009 | [14] 0.062 | [15] 0.018 | [16] -0.015

NUDT3 (UniProt O95989)
inactive: erlotinib -0.028 | [1] 0.043 | [2] -0.012 | [3] -0.009 | [4] -0.03 | [5] -0.026 | [6] 0.03 | [7] -0.019 | [8] -0.012 | IRAK-1-4 Inhibitor I -0.033 | ibrutinib 0.088 | [9] 0.035 | ralimetinib 0.072 | [10] 0.035 | [11] -0.037 | [12] -0.002 | [13] -0.005 | [14] -0.01 | [15] -0.007 | [16] -0.007

NOC3L (UniProt Q8WTT2)
inactive: erlotinib -0.011 | [1] -0.209 | [2] 0.032 | [3] 0.039 | [4] -0.016 | [5] 0.029 | [6] 0.052 | [7] -0.002 | [8] 0.015 | IRAK-1-4 Inhibitor I -0.108 | ibrutinib -0.027 | [9] 0.009 | ralimetinib 0.004 | [10] -0.023 | [11] -0.003 | [12] -0.061 | [13] 0.049 | [14] 0.08 | [15] -0.008 | [16] 0.016

NSMAF (UniProt Q92636)
inactive: erlotinib -0.024 | [1] -0.047 | [2] -0.001 | [3] 0.038 | [4] 0.029 | [5] -0.013 | [6] -0.003 | [7] -0.007 | [8] -0.002 | IRAK-1-4 Inhibitor I 0.021 | ibrutinib -0.037 | [9] -0.015 | ralimetinib 0.011 | [10] 0.002 | [11] 0.014 | [12] 0.002 | [13] -0.002 | [14] 0.01 | [15] 0.01 | [16] 0.024

NME3 (UniProt Q13232)
inactive: erlotinib 0.02 | [1] 0.019 | [2] 0.052 | [3] 0.027 | [4] 0.129 | [5] -0.017 | [6] -0.071 | [7] 0.016 | [8] 0.012 | IRAK-1-4 Inhibitor I -0.012 | ibrutinib -0.04 | [9] 0.012 | ralimetinib -0.043 | [10] -0.025 | [11] -0.046 | [12] 0.022 | [13] -0.043 | [14] 0.007 | [15] 0.011 | [16] -0.019

NSMCE2 (UniProt Q96MF7)
inactive: erlotinib -0.07 | [1] -0.025 | [2] -0.037 | [3] 0.061 | [4] -0.025 | [5] 0.009 | [6] -0.016 | [7] -0.021 | [8] -0.012 | IRAK-1-4 Inhibitor I -0.038 | ibrutinib 0.009 | [9] 0.009 | ralimetinib 0.018 | [10] 0.062 | [11] -0.006 | [12] 0.094 | [13] 0 | [14] -0.006 | [15] 0.034 | [16] -0.003

NUDT4 (UniProt Q9NZJ9)
inactive: erlotinib -0.043 | [1] 0.233 | [2] -0.022 | [3] 0.07 | [4] -0.055 | [5] -0.009 | [6] 0.039 | [7] 0.059 | [8] 0.026 | IRAK-1-4 Inhibitor I -0.026 | ibrutinib 0.091 | [9] 0.022 | ralimetinib 0.074 | [10] 0.067 | [11] -0.012 | [12] 0.017 | [13] 0.003 | [14] -0.105 | [15] -0.014 | [16] 0.058

NUCB1 (UniProt Q02818)
inactive: erlotinib -0.022 | [1] 0.016 | [2] 0 | [3] -0.036 | [4] -0.021 | [5] -0.007 | [6] -0.013 | [7] 0.008 | [8] -0.001 | IRAK-1-4 Inhibitor I 0.011 | ibrutinib 0.052 | [9] -0.004 | ralimetinib -0.001 | [10] -0.001 | [11] -0.025 | [12] 0.038 | [13] 0.019 | [14] 0.011 | [15] -0.008 | [16] 0.009

NUMA1 (UniProt Q14980)
inactive: erlotinib -0.019 | [1] 0.028 | [2] -0.007 | [3] -0.029 | [4] -0.019 | [5] 0.013 | [6] 0.009 | [7] -0.01 | [8] -0.012 | IRAK-1-4 Inhibitor I -0.016 | ibrutinib 0.021 | [9] 0.013 | ralimetinib 0.006 | [10] -0.016 | [11] -0.01 | [12] 0.016 | [13] -0.01 | [14] 0.011 | [15] 0.001 | [16] 0.02

NPC1 (UniProt O15118)
inactive: erlotinib 0.003 | [1] -0.03 | [2] 0.014 | [3] 0.014 | [4] -0.004 | [5] -0.02 | [6] 0.038 | [7] -0.009 | [8] 0.043 | IRAK-1-4 Inhibitor I -0.008 | ibrutinib 0.01 | [9] -0.011 | ralimetinib 0.011 | [10] -0.035 | [11] -0.004 | [12] -0.005 | [13] -0.021 | [14] -0.013 | [15] 0.008 | [16] -0.052

NUBP1 (UniProt P53384)
inactive: erlotinib 0.003 | [1] 0.013 | [2] -0.047 | [3] -0.038 | [4] 0.015 | [5] 0.03 | [6] 0.026 | [7] 0.031 | [8] -0.005 | IRAK-1-4 Inhibitor I 0.034 | ibrutinib 0.027 | [9] 0.042 | ralimetinib -0.054 | [10] -0.033 | [11] 0.004 | [12] -0.005 | [13] -0.012 | [14] 0.013 | [15] -0.03 | [16] 0.01

NOL7 (UniProt Q9UMY1)
inactive: erlotinib -0.055 | [1] -0.026 | [2] -0.028 | [3] -0.008 | [4] -0.087 | [5] 0.045 | [6] -0.012 | [7] -0.013 | [8] -0.034 | IRAK-1-4 Inhibitor I -0.042 | ibrutinib 0.069 | [9] 0.02 | ralimetinib 0.042 | [10] 0.064 | [11] -0.003 | [12] -0.026 | [13] -0.028 | [14] 0.087 | [15] -0.064 | [16] 0.041

NSL1 (UniProt Q96IY1)
inactive: erlotinib 0.01 | [1] -0.004 | [2] 0.015 | [3] -0.001 | [4] -0.002 | [5] 0.01 | [6] 0.077 | [7] 0.001 | [8] -0.015 | IRAK-1-4 Inhibitor I 0.026 | ibrutinib -0.019 | [9] -0.002 | ralimetinib 0.003 | [10] -0.052 | [11] 0.011 | [12] -0.066 | [13] 0.023 | [14] 0.009 | [15] 0.008 | [16] 0.036

Pulled one by one from above, 2 records:
NPC1 (UniProt O15118)
inactive: erlotinib 0.003 | [1] -0.03 | [2] 0.014 | [3] 0.014 | [4] -0.004 | [5] -0.02 | [6] 0.038 | [7] -0.009 | [8] 0.043 | IRAK-1-4 Inhibitor I -0.008 | ibrutinib 0.01 | [9] -0.011 | ralimetinib 0.011 | [10] -0.035 | [11] -0.004 | [12] -0.005 | [13] -0.021 | [14] -0.013 | [15] 0.008 | [16] -0.052

NUMA1 (UniProt Q14980)
inactive: erlotinib -0.019 | [1] 0.028 | [2] -0.007 | [3] -0.029 | [4] -0.019 | [5] 0.013 | [6] 0.009 | [7] -0.01 | [8] -0.012 | IRAK-1-4 Inhibitor I -0.016 | ibrutinib 0.021 | [9] 0.013 | ralimetinib 0.006 | [10] -0.016 | [11] -0.01 | [12] 0.016 | [13] -0.01 | [14] 0.011 | [15] 0.001 | [16] 0.02
